Results are given in words; binding and its absence hold for the method and conditions named. In cells and extracts the contact can be indirect. Some binding calls cover weakened binding; strength is not graded here. For part of these data: Tags and fused reporters may be left off the sequences shown.

The chains behind the UniProt entries cited, without tags or fusion partners.
UniProt P06733: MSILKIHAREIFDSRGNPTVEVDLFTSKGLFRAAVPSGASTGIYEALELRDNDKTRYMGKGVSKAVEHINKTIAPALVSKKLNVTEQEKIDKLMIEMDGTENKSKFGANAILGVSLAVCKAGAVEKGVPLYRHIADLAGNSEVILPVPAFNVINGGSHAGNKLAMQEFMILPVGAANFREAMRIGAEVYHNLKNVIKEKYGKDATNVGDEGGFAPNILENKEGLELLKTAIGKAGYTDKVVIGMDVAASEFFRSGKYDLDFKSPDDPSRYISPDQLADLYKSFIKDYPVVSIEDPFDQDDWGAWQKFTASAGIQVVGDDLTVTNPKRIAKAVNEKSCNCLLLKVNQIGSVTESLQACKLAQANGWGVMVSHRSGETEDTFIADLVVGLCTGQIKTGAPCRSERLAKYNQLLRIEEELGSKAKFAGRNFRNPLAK
UniProt Q16665: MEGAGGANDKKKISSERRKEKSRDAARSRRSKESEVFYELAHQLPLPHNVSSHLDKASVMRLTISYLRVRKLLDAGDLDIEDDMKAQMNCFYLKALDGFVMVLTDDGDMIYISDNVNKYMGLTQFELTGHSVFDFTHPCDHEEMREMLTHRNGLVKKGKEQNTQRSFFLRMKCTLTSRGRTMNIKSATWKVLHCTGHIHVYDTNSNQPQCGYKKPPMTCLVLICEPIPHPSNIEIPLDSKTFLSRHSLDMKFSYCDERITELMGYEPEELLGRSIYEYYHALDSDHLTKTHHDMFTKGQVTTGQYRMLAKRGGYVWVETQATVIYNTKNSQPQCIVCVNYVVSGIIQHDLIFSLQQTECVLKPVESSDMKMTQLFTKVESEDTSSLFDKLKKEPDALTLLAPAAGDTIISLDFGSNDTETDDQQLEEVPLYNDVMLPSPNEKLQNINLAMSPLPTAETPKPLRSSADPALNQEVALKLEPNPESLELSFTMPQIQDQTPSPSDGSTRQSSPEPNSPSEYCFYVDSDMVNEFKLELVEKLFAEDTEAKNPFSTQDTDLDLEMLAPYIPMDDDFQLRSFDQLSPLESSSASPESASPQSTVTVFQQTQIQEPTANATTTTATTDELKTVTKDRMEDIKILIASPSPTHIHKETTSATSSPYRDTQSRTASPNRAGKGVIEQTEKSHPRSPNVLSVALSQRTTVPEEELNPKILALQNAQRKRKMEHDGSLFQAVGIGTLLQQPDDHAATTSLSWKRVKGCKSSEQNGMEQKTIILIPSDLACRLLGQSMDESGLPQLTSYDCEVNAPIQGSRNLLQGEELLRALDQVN

In assay [1] the target is T1, His-USP21 (human) (UniProt Q9UK80).
T1 sequence: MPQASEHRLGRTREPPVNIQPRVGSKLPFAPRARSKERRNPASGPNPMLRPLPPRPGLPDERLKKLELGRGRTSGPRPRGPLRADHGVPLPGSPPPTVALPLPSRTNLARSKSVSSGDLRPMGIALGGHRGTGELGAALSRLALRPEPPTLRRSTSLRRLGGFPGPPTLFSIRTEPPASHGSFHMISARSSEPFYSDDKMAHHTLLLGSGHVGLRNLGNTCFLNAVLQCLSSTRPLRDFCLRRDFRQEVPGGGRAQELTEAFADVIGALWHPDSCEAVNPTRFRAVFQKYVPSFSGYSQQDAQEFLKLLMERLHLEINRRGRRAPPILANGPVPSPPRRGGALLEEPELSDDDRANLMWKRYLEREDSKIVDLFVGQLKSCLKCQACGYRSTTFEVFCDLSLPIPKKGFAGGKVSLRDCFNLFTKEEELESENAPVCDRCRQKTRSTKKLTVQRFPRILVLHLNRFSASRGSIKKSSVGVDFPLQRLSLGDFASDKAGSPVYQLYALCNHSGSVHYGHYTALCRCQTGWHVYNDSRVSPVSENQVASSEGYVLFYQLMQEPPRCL
As to the kind of experiment: co-IP; His-USP21 or its truncated mutants transfected into HEK293T cells; co-IP and blot for HSP90 and ENO1.

Assay [2] concerns the target T2, ubiquitin-specific protease 21 (USP21) (human (endogenous in QBC939 and HuCCT1)) (UniProt Q9UK80).
T2 sequence: T1 sequence
Put plainly: co-IP; endogenous proteins in lysates of CCA cells (QBC939; consistent in HuCCT1); IP of USP21, and reverse IP of HSP90 and of ENO1, then blot.

Take “ENO1 in HEK293T cells (from UniProt P06733 1-434) (enzyme)”: the binding result in assay [1] was “binds”. For the substance “Hypoxia-inducible factor -1a (HIF1A) (from UniProt Q16665 1-826)”, in assay [2], the binding entry is given as “no binding”.

Consider “alpha-Enolase 1 (ENO1) (from UniProt P06733 1-434) (enzyme)”, for which the binding result in assay [2] is “binds”.

(Values after PMC10878141.)
